Experimental data as given in publication PMC7606486, “CFAP45 deficiency causes situs abnormalities and asthenospermia by disrupting an axonemal adenine nucleotide homeostasis module” (Nature Communications, 2020).

Biological target: T1, NTAP-AK8 (UniProt Q96MA6)
T1 sequence: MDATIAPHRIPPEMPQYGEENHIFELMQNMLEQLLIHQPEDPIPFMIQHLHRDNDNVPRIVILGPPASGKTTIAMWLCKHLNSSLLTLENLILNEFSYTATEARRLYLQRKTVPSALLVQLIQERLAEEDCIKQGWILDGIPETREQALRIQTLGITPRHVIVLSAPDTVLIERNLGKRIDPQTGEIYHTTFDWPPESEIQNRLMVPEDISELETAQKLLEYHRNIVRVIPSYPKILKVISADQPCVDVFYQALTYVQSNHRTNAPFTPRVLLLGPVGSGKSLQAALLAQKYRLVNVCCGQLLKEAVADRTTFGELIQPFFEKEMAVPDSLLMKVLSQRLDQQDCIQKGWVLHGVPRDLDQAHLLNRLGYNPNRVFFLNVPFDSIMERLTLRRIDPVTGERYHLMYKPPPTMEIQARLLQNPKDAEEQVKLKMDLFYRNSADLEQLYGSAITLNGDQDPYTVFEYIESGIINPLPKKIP
Test: tandem affinity purification (TAP); co-expression in HEK293 cells, TAP of recombinant AK8, standard 150 mM NaCl lysis buffer

- binding: binds
Substance: recombinant, epitope-tagged CFAP52 (552 amino acid isoform) (human)

Results are given in words; binding and its absence hold for the method and conditions named. Binding calls can cover weak binding; strength is not graded here.
